# For at least one compound, name, drawing or mass did not settle the structure.
# System: HaCaT cells
# Assay: IP-6 +/- inositol as radioprotectant: attachment of UVB-exposed cells
# Assay type: cell-based, human
# Details: UVB 30 mJ/cm^2, 18 hours
smiles,measurement,value
"O[C@H]1[C@H](O)[C@@H](O)[C@H](O)[C@@H](O)[C@H]1O [Inositol, hexahydroxycyclohexane]",cell attachment vs untreated control,control untreated cells show less attachment to the plate as opposed to those treated

# Source: patent US20070293458A1, “Prevention of nuclear, solar, and other radiation-induced tissue damage” (IP-6 Research Inc., priority 2006, published 2007)
